Measured values from US20150150950A1.
Results are given in words; binding and its absence hold for the method and conditions named. In cells and extracts the contact can be indirect. Some entries that bind do so weakly or less than the wild type.

Protein sequences, listed by entry. Tags and fused reporters are not part of them. Lines headed by an entry give the natural chain unless they say otherwise; changes in a name come on top. Residues count along the entry.
UniProt Q9WV60: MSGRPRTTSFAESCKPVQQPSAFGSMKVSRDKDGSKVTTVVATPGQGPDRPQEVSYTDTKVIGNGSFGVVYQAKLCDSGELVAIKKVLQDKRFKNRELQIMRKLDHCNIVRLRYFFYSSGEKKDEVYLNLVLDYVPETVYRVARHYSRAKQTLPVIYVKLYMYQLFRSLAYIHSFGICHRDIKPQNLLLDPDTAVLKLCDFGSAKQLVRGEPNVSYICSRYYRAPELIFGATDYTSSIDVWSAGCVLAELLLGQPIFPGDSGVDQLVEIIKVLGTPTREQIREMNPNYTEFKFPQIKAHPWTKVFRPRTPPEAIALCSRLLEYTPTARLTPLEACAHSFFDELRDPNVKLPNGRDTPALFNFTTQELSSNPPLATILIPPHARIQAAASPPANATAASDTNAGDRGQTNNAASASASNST
UniProt P47811, residues 2-360: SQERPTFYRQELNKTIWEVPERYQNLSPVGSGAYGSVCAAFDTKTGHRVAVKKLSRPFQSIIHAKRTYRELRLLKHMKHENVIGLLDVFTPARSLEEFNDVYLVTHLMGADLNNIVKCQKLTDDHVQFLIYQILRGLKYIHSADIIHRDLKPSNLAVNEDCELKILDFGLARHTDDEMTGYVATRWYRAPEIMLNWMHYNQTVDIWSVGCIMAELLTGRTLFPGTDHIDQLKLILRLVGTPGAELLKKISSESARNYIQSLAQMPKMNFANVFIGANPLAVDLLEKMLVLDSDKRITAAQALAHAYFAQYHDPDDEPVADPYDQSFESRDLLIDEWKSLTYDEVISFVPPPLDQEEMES

Target: GSK3β (endogenous, MKK6 transgenic mouse thymocytes) (mouse) (UniProt Q9WV60)
Experiment: co-immunoprecipitation with anti-GSK3β from MKK6 thymocyte extracts, Western blot (FIG. 2F)

- binding: binds
Substance: p38 MAPK (endogenous, MKK6 transgenic mouse thymocytes) (from UniProt P47811 2-360) (enzyme)
